In the test the target is GST-GABARAP (human) (UniProt O95166). Nature of the test: pull-down.

Protein sequences, listed by entry. Tags and fused reporters are not part of them.
UniProt O95166: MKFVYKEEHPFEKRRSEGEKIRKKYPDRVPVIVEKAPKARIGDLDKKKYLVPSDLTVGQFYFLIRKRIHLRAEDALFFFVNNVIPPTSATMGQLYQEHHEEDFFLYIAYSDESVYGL

This note sets out measurements from paper doi:10.1101/2022.04.26.489478.

Results are given in words; binding and its absence hold for the method and conditions named. In cells and extracts the contact can be indirect. Some entries that bind do so weakly or less than the wild type. Where a sequence is shown, tags or fusion partners need not be part of it.

B1: MBP-HsC53 (protein, UniProt Q96JB5 1-506)
chain: MEDHQHVPIDIQTSKLLDWLVDRRHCSLKWQSLVLTIREKINAAIQDMPESEEIAQLLSGSYIHYFHCLRILDLLKGTEASTKNIFGRYSSQRMKDWQEIIALYEKDNTYLVELSSLLVRNVNYEIPSLKKQIAKCQQLQQEYSRKEEECQAGAAEMREQFYHSCKQYGITGENVRGELLALVKDLPSQLAEIGAAAQQSLGEAIDVYQASVGFVCESPTEQVLPMLRFVQKRGNSTVYEWRTGTEPSVVERPHLEELPEQVAEDAIDWGDFGVEAVSEGTDSGISAEAAGIDWGIFPESDSKDPGGDGIDWGDDAVALQITVLEAGTQAPEGVARGPDALTLLEYTETRNQFLDELMELEIFLAQRAVELSEEADVLSVSQFQLAPAILQGQTKEKMVTMVSVLEDLIGKLTSLQLQHLFMILASPRYVDRVTEFLQQKLKQSQLLALKKELMVQKQQEALEEQAALEPKLDLLLEKTKELQKLIEADISKRYSGRPVNLMGTSL
Take B1: the binding result is given as “binds”.
